PubChem BioAssay AID1259254 | NCATS | 2017
Aim: 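Genome-wide screen for genes that prevent DNA re-replication in cancer cells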 (primary screen). Cell system: human HCT116 colorectal cancer cells. Knock-down reagent: single siRNA against human genes. Duration: 3 days. Detection: 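Imaged Hoechst DNA stain sorts each cell into a cycle phase by DNA amount; per plate, G2 fraction set to 0% for non-targeting and 100% for GMNN siRNA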. Scale: G2 robust z-score: higher = more G2 cells, more excess DNA replication. Call rule: 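An siRNA counts as active if its G2 robust z-score lies at least 5 MADs above the screen median; here such calls match roughly 38% of GMNN control or more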.
The whole screen tested about 59,000 reagents; shown is an unselected part. In the full data, about 1,550 (2.6%) were called active. 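G2 share is only a proxy for re-replication; each gene was hit by three separate siRNAs, and active genes were retested.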 Entries without a mark were called inactive. The numbers tell different reagents against one gene apart. Not all columns of the deposit are shown. Reagent sequences are not shown. The record does not give: the amount of reagent.

For RIN3 (Ras and Rab interactor 3) #1, how do the results read?
G2 robust z-score: 1.77

How did the screen score RIN3 (Ras and Rab interactor 3) #2?
G2 robust z-score: -0.117

What did the screen give for RIN3 (Ras and Rab interactor 3) #3?
G2 robust z-score: 0.0264

Which result is listed for PRSS45P (serine protease 45, pseudogene) #1?
G2 robust z-score: -0.351

How did the screen score PRSS45P (serine protease 45, pseudogene) #2?
G2 robust z-score: -0.926

For PRSS45P (serine protease 45, pseudogene) #3, what does the deposit list?
G2 robust z-score: 0.0674

Which result is listed for KRT6A (keratin 6A) #1?
G2 robust z-score: -1.1

With KRT6A (keratin 6A) #2, how do the results read?
G2 robust z-score: -1.11

With KRT6A (keratin 6A) #3, what was measured?
G2 robust z-score: 0.169

With DHRS1 (dehydrogenase/reductase 1) #1, what was measured?
G2 robust z-score: -1.11

What is on record for DHRS1 (dehydrogenase/reductase 1) #2?
G2 robust z-score: 1.37

For DHRS1 (dehydrogenase/reductase 1) #3, how do the results read?
G2 robust z-score: 0.111

Looked up above:
KRT6A (keratin 6A) #1, G2 robust z-score: -1.1
DHRS1 (dehydrogenase/reductase 1) #1, G2 robust z-score = -1.11
Result for DHRS1 (dehydrogenase/reductase 1) #2 in “G2 robust z-score”: 1.37
KRT6A (keratin 6A) #3, G2 robust z-score = 0.169

More results follow.
With NDUFB6 (NADH:ubiquinone oxidoreductase subunit B6) #1, how do the results read?
G2 robust z-score: 5.03 (active)

With NDUFB6 (NADH:ubiquinone oxidoreductase subunit B6) #2, how do the results read?
G2 robust z-score: -1.09

With NDUFB6 (NADH:ubiquinone oxidoreductase subunit B6) #3, what does the deposit list?
G2 robust z-score: 2.65

What is on record for OR1G1 (olfactory receptor family 1 subfamily G member 1) #1?
G2 robust z-score: -0.197

Which result is listed for OR1G1 (olfactory receptor family 1 subfamily G member 1) #2?
G2 robust z-score: -0.93

With OR1G1 (olfactory receptor family 1 subfamily G member 1) #3, what does the deposit list?
G2 robust z-score: -0.761

What is on record for CPA5 (carboxypeptidase A5) #1?
G2 robust z-score: -0.531

What did the screen give for CPA5 (carboxypeptidase A5) #2?
G2 robust z-score: 1.04

With CPA5 (carboxypeptidase A5) #3, what was measured?
G2 robust z-score: 4.52

What is on record for ZIC5 (Zic family zinc finger 5) #1?
G2 robust z-score: 0.0604

What is on record for ZIC5 (Zic family zinc finger 5) #2?
G2 robust z-score: 0.344

What did the screen give for ZIC5 (Zic family zinc finger 5) #3?
G2 robust z-score: -0.67

With ATXN2L (ataxin 2 like) #1, what does the deposit list?
G2 robust z-score: -0.577

How did the screen score ATXN2L (ataxin 2 like) #2?
G2 robust z-score: 3.12

For ATXN2L (ataxin 2 like) #3, what does the deposit list?
G2 robust z-score: -0.0471

What is on record for ATAD1 (ATPase family AAA domain containing 1) #1?
G2 robust z-score: -1.13

What is on record for ATAD1 (ATPase family AAA domain containing 1) #2?
G2 robust z-score: 0.265

With ATAD1 (ATPase family AAA domain containing 1) #3, how do the results read?
G2 robust z-score: 4.95
